Results taken from patent US20130123349A1.
No constants are given. Whether binding was seen depends on the method and setting. Some results given as binding are weak or reduced against the parent protein; the word gives no strength.

Sequences of proteins named here, by UniProt entry; tags and fusion partners are left off. A change or cut given only in a name is not applied to a line headed by its entry. Residues count along the entry.
UniProt P02461, residues 168-1196: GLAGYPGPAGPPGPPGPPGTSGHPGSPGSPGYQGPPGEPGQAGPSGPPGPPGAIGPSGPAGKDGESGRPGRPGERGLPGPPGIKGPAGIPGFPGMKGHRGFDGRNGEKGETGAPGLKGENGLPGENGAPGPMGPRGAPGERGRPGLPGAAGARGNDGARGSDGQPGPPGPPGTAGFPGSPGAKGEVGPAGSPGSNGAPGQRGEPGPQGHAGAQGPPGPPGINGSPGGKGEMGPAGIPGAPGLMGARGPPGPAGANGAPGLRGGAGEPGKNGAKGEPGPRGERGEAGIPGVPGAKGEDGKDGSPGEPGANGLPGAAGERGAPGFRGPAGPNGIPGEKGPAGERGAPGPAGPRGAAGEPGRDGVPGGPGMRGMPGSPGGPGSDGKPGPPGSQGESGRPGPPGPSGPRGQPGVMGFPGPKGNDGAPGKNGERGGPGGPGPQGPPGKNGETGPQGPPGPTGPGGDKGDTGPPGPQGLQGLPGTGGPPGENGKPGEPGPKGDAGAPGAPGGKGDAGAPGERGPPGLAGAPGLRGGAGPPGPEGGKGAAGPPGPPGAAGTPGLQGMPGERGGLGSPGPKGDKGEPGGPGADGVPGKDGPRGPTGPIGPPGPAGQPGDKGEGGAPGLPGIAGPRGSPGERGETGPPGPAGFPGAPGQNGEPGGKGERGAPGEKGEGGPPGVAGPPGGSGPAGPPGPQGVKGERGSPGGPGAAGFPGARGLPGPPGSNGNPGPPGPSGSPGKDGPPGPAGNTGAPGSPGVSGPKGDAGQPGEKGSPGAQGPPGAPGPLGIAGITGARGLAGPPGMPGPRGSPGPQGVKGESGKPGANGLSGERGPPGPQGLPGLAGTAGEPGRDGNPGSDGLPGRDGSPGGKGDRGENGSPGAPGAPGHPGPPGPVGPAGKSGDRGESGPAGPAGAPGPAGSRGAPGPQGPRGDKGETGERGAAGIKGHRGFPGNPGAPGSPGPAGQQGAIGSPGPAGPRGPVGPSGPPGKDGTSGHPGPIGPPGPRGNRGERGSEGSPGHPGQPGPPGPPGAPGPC
UniProt P02458, residues 201-1214: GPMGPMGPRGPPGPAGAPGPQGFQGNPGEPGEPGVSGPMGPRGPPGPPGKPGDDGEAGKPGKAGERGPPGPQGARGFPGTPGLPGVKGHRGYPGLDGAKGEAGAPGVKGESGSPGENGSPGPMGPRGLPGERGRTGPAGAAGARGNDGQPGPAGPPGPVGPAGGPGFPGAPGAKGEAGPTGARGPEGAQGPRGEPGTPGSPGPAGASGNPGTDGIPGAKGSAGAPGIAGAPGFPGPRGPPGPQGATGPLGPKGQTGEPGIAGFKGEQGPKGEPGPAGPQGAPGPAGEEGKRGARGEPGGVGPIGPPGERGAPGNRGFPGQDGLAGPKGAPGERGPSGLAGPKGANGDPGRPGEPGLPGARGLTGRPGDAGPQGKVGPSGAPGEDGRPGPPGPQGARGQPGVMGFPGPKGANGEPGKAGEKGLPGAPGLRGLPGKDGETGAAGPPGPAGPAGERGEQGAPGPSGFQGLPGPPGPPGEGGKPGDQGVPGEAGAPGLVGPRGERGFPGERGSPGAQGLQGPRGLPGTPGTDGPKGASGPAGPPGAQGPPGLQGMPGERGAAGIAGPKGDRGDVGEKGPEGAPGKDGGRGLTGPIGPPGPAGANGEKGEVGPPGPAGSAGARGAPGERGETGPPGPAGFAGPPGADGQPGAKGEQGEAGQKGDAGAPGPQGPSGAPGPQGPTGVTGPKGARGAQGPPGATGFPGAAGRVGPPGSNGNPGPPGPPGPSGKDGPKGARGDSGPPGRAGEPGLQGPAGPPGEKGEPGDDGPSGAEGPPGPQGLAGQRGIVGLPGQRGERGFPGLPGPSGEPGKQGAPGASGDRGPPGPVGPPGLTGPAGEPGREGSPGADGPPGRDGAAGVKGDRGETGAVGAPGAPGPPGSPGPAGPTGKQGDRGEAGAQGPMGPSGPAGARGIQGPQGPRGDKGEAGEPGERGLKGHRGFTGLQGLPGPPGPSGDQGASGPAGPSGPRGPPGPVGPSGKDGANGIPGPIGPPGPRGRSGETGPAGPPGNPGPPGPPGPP
UniProt Q9HCN6, residues 21-267: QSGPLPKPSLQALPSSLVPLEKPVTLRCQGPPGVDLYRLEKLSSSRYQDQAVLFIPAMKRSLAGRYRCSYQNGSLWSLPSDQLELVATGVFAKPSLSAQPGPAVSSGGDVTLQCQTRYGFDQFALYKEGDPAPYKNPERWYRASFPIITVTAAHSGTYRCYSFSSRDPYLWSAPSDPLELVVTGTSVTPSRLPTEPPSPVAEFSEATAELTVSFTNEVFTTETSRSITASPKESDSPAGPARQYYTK
UniProt O01949: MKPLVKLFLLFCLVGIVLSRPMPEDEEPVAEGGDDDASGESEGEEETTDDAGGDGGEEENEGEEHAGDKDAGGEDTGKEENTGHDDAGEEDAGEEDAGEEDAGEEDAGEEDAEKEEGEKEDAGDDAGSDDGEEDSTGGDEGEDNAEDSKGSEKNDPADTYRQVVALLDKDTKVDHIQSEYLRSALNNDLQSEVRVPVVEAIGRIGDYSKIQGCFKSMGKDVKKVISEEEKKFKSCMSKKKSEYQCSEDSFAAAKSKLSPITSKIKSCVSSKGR
UniProt P02452: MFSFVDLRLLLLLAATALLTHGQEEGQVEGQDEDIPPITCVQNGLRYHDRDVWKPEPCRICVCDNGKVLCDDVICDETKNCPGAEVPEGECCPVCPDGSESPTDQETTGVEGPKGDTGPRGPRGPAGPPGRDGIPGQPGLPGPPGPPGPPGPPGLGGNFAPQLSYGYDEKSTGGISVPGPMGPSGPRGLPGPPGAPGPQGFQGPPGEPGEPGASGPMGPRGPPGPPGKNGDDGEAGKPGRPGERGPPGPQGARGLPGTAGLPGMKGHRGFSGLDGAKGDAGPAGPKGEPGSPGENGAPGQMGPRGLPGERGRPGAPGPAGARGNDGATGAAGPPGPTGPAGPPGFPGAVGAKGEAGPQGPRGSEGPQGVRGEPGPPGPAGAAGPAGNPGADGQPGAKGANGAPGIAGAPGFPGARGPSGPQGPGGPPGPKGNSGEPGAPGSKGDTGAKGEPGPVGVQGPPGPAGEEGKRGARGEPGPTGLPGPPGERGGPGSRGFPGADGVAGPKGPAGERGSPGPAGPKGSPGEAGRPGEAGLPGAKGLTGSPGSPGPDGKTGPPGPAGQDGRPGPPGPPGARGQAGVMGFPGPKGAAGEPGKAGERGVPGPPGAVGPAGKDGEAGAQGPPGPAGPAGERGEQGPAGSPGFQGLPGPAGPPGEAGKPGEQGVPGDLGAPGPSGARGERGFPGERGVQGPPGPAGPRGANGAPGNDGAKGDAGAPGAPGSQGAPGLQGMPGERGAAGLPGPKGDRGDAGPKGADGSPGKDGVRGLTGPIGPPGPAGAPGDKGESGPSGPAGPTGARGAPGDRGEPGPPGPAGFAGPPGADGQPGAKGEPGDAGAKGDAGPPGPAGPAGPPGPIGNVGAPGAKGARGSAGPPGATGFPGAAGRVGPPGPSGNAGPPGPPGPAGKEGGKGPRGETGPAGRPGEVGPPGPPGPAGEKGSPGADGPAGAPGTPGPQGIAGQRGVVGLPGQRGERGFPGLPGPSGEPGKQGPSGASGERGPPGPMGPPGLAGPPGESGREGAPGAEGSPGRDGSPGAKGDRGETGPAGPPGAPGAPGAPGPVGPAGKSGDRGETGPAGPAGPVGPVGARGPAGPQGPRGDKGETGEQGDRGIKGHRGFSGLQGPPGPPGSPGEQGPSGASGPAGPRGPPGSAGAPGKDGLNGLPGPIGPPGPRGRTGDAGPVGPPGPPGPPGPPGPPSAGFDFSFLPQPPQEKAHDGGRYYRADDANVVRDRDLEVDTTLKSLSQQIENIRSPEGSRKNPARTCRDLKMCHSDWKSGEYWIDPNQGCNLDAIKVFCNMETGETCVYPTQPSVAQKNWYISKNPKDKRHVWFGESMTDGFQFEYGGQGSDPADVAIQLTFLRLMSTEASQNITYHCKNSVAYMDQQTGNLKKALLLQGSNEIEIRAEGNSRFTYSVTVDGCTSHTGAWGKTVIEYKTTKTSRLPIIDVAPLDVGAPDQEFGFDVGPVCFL

Legend:
[1] = target: soluble collagen type III (pepsin-digested, non-fibrillar; BD Biosciences) (human) (UniProt P02461); experiment: SPR, Aegyptin injected over immobilized collagen type III
[2] = target: soluble collagen type III (pepsin-digested, non-fibrillar; BD Biosciences) (human) (UniProt P02461); experiment: ELISA, blocking: coated collagen type III preincubated with Aegyptin, then 3 nM vWf, detected with anti-vWf
[3] = target: soluble collagen type III (pepsin-digested, non-fibrillar; BD Biosciences) (human) (UniProt P02461); experiment: SPR (FIG. 1C, collagen I-III)
[4] = target: soluble collagen type II (human) (UniProt P02458); experiment: SPR (FIG. 1C, collagen I-III)
[5] = target: soluble collagen type III (pepsin-digested, non-fibrillar; BD Biosciences) (human) (UniProt P02461); experiment: SPR, Aegyptin injected over immobilized matrix proteins; concentration not given
[6] = target: soluble collagen type II (human) (UniProt P02458); experiment: as above
[7] = target: soluble collagen type III (pepsin-digested, non-fibrillar; BD Biosciences) (human) (UniProt P02461); experiment: SPR
[8] = target: soluble collagen type II (human) (UniProt P02458); experiment: SPR
[9] = target: recombinant GPVI (UniProt Q9HCN6); experiment: SPR, collagen type I injected over immobilized GPVI
[10] = target: recombinant GPVI (UniProt Q9HCN6); experiment: SPR, collagen type I preincubated with buffer and injected over immobilized GPVI

Measured: binding

recombinant Aegyptin (from UniProt O01949 20-273)
not listed: [9] | [10]
binds: all other assays above

soluble collagen type I (pepsin-digested, non-fibrillar, triple helical; BD Biosciences) (from UniProt P02452 179-1192; P08123 91-1104)
binds: [9] | [10]
